Experimental data published in patent US4640910A (Abbott Laboratories, priority 1985, dated 1987).

Experiment: Taste test of aqueous suspensions by four tasters
Settings: for aftertaste reported by one taster: about two hours after tasting, one of four tasters; for taste: suspended in water, four tasters

SMILES | aftertaste reported by one taster | taste
CC[C@H]1OC(=O)[C@H](C)[C@@H](O[C@H]2C[C@@](C)(OC)[C@@H](O)[C@H](C)O2)[C@H](C)[C@@H](O[C@@H]2O[C@H](C)C[C@H](N(C)C)[C@H]2O[Si](C)(C)C)[C@](C)(O)C[C@@H](C)C(=O)[C@H](C)[C@@H](O)[C@]1(C)O [Example 2, 2'-O-Trimethylsilyl Erythromycin A] | slight saline taste | virtually tasteless
CC[C@H]1OC(=O)[C@H](C)[C@@H](O[C@H]2C[C@@](C)(OC)[C@@H](O)[C@H](C)O2)[C@H](C)[C@@H](O[C@@H]2O[C@H](C)C[C@H](N(C)C)[C@H]2O[Si](C)(C)C)[C@](C)(OC)C[C@@H](C)C(=O)[C@H](C)[C@@H](O)[C@]1(C)O [Example 3, 2'-O-trimethylsilyl-6-O-methyl-Erythromycin A] | slight saline taste | virtually tasteless
